These are yes or no findings as the source states them, for the method shown. Some results given as binding are weak or reduced against the parent protein; the word gives no strength. Blank lines part the entries; values can stand above or below the substance they belong to.
Tests used:
Assay in all cases: gel filtration chromatography, self-association
[1] = molecular target: APX single mutant D229K, N-terminally His6-tagged (Pisum sativum (pea)) (UniProt P48534)
[2] = molecular target: APX single mutant E112K, N-terminally His6-tagged (Pisum sativum (pea)) (UniProt P48534)
[3] = molecular target: APX single mutant A28K, N-terminally His6-tagged (Pisum sativum (pea)) (UniProt P48534)
[4] = molecular target: APX single mutant K14D, N-terminally His6-tagged (Pisum sativum (pea)) (UniProt P48534)
[5] = molecular target: APX single mutant E228K, N-terminally His6-tagged (Pisum sativum (pea)) (UniProt P48534)

By UniProt entry, the sequences of proteins in these tests, tags left out. Where a name states a change or a piece, a line headed by the entry shows the natural chain unless it says otherwise.
UniProt P48534: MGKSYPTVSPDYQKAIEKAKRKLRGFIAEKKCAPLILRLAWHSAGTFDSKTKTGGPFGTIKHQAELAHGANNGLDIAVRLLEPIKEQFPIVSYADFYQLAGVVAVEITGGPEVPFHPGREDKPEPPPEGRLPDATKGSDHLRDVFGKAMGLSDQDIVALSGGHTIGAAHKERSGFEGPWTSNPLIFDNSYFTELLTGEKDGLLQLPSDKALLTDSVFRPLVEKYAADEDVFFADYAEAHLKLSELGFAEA

binding [2]: binds
Substance: APX single mutant E112K, N-terminally His6-tagged (from UniProt P48534 2-250) (enzyme)

binding [4]: binds
Substance: APX single mutant K14D, N-terminally His6-tagged (from UniProt P48534 2-250) (enzyme)

The next lines start with the substance.

Substance: APX single mutant D229K, N-terminally His6-tagged (from UniProt P48534 2-250) (enzyme)
binding [1]: binds

Substance: APX single mutant A28K, N-terminally His6-tagged (from UniProt P48534 2-250) (enzyme)
binding [3]: binds

Substance: APX single mutant E228K, N-terminally His6-tagged (from UniProt P48534 2-250) (enzyme)
binding [5]: binds

Source: US20150037829A1 (MIT, published 2015)
